Measured values as given in patent publication US20120082663A1.
These are yes or no findings as the source states them, for the method shown. Some entries that bind do so weakly or less than the wild type. Sequences can lack the tags named with a protein.

Amino acid sequences for entries named in this document (tags omitted). Residues count along the entry.
UniProt P08581, residues 25-929: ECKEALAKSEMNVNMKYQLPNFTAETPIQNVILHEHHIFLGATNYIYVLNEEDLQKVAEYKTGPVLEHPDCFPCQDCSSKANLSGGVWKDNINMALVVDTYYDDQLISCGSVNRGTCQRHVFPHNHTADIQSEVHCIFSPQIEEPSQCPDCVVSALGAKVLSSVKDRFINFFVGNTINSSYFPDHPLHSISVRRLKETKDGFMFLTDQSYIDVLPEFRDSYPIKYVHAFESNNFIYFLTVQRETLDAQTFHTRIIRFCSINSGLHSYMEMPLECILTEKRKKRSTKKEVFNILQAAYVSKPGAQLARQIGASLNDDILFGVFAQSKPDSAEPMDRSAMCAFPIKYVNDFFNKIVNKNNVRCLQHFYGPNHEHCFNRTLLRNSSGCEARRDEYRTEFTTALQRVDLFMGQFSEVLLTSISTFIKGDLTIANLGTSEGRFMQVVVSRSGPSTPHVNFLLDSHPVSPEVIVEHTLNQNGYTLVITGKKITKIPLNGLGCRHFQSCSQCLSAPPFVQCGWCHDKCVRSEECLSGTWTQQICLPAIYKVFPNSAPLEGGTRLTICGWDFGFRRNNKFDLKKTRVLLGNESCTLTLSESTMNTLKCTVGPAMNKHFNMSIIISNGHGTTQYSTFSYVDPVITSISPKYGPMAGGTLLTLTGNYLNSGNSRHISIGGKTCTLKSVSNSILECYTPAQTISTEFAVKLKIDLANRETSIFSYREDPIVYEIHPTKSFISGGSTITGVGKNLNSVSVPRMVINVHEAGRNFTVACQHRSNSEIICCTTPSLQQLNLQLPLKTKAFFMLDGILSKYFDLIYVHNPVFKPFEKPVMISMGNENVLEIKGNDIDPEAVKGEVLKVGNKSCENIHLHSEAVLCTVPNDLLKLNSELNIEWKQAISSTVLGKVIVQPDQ

Target: cMet-Ig protein (biotinylated) (UniProt P08581)
Experiment: electrochemiluminescent competition assay: antibody against HGF-Ruthenium Tag binding to cMet-Ig-biotin

binding: binds
B1: chimeric one-armed 5D5 antibody (Fab arm from the murine parent 5D5 antibody fused to a human Fc region) (antibody, V domains shown)
VH: QVQLQQSGPELVRPGASVKMSCRASGYTFTSYWLHWVKQRPGQGLEWIGMIDPSNSDTRFNPNFKDKATLNVDRSSNTAYMLLSSLTSADSAVYYCATYGSYVSPLDYWGQGTSVTVSS
VL: DIMMSQSPSSLTVSVGEKVTVSCKSSQSLLYTSSQKNYLAWYQQKPGQSPKLLIYWASTRESGVPDRFTGSGSGTDFTLTITSVKADDLAVYYCQQYYAYPWTFGGGTKLEIKR
